In the supplement of paper PMC12067093, “Discovery and optimisation of a covalent ligand for TRIM25 and its application to targeted protein ubiquitination” (Chemical Science, 2025):
The list shows a part of the results.

Protein sequences, listed by entry. Tags and fused reporters are not part of them. Lines headed by an entry give the natural chain unless they say otherwise; changes in a name come on top.
UniProt O43566: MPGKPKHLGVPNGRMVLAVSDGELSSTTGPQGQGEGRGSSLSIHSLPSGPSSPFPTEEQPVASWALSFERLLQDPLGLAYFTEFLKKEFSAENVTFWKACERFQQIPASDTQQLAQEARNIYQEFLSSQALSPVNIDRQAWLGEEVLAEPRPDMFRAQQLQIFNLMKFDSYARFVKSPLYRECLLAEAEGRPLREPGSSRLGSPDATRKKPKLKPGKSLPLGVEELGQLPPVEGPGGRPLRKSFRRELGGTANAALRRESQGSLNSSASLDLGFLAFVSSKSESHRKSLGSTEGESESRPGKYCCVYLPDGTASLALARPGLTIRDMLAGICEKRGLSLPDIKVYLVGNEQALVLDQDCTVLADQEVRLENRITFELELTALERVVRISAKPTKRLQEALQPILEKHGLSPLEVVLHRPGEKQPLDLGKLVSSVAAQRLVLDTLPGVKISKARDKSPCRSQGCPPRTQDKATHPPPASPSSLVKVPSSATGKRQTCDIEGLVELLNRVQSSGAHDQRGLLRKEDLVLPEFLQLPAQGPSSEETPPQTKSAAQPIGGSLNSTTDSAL
UniProt O60930: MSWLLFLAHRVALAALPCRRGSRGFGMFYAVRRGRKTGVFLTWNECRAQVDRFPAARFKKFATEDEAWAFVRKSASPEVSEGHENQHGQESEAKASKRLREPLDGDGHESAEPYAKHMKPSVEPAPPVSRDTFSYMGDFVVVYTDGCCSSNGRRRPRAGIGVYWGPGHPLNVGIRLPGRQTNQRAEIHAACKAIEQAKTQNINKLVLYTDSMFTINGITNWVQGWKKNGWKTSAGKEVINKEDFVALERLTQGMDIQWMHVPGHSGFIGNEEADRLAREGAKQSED
UniProt Q9BVS4: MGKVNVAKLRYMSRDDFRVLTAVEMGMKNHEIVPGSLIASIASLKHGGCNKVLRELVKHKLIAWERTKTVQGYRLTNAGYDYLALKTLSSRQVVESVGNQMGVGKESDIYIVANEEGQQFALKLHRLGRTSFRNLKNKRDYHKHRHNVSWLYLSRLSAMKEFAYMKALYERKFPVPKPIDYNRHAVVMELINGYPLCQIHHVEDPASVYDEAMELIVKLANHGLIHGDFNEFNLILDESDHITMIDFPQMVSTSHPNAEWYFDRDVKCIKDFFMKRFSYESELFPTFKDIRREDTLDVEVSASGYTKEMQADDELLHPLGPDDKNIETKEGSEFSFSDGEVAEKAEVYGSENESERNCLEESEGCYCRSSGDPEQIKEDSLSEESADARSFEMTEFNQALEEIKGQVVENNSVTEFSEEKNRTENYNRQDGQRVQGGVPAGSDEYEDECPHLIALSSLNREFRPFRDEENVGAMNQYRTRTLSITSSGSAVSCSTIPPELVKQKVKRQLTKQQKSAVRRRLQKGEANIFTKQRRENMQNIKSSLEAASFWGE
UniProt Q13129: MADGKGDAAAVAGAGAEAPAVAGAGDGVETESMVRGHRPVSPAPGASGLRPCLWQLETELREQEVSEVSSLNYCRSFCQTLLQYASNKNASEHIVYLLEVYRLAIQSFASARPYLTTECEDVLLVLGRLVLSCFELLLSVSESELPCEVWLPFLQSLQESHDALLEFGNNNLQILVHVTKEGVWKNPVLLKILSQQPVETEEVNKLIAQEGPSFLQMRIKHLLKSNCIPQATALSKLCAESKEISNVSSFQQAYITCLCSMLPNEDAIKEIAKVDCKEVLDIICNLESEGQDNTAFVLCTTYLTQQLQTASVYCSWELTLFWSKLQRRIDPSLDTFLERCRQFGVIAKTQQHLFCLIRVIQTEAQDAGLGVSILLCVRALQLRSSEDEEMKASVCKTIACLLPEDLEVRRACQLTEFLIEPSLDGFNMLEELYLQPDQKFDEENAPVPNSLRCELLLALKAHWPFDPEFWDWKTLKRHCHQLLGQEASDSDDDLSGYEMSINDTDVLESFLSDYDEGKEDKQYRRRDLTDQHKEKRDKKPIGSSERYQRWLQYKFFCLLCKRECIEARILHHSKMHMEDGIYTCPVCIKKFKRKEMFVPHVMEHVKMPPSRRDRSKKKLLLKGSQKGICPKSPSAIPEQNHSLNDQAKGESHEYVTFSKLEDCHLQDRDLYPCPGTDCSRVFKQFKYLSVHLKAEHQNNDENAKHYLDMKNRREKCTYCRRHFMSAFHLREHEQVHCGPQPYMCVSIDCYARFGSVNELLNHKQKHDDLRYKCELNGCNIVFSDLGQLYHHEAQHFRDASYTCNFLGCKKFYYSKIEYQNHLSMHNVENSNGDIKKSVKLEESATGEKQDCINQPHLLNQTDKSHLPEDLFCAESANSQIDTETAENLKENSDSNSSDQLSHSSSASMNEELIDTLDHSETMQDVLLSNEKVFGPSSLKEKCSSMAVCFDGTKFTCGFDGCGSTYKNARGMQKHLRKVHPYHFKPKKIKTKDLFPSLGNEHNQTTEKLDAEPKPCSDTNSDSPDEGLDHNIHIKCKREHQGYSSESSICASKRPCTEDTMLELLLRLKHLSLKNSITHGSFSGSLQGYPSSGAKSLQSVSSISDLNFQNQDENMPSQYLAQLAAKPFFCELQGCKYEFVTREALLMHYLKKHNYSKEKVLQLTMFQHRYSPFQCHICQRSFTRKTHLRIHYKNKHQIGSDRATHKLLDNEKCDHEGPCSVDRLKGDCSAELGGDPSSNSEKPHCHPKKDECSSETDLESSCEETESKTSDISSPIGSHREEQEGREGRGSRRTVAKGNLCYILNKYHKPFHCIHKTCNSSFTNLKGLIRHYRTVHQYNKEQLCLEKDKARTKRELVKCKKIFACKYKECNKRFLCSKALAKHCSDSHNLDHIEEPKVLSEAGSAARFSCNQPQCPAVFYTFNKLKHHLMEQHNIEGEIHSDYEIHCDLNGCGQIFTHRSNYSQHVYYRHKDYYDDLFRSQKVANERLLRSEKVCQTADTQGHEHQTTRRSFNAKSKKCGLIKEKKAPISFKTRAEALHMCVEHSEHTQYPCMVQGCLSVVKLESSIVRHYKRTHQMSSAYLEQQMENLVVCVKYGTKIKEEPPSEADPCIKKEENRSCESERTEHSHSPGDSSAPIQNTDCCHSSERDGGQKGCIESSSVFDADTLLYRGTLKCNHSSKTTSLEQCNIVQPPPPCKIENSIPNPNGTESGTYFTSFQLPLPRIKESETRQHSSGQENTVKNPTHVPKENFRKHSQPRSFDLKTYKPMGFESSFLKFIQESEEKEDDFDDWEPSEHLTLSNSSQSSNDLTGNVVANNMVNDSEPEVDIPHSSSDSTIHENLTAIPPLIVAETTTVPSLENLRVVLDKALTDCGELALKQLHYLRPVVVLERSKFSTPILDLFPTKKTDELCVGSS
UniProt Q5TBB1: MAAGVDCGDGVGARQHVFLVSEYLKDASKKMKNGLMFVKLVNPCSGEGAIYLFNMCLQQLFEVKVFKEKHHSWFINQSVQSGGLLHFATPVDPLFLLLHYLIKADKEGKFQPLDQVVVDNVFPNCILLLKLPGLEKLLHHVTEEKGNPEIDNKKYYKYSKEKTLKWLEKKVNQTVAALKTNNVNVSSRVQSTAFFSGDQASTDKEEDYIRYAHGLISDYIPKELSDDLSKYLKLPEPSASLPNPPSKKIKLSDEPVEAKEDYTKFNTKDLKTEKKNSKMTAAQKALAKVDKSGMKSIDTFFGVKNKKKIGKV
UniProt O00584, whole entry, looked up: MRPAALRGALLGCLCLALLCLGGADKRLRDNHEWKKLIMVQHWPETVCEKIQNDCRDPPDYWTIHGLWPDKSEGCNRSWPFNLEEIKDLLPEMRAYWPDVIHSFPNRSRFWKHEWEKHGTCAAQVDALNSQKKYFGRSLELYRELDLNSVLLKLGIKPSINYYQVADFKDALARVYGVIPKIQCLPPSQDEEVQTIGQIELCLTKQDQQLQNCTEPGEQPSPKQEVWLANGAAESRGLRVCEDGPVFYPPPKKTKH
UniProt Q5UIP0: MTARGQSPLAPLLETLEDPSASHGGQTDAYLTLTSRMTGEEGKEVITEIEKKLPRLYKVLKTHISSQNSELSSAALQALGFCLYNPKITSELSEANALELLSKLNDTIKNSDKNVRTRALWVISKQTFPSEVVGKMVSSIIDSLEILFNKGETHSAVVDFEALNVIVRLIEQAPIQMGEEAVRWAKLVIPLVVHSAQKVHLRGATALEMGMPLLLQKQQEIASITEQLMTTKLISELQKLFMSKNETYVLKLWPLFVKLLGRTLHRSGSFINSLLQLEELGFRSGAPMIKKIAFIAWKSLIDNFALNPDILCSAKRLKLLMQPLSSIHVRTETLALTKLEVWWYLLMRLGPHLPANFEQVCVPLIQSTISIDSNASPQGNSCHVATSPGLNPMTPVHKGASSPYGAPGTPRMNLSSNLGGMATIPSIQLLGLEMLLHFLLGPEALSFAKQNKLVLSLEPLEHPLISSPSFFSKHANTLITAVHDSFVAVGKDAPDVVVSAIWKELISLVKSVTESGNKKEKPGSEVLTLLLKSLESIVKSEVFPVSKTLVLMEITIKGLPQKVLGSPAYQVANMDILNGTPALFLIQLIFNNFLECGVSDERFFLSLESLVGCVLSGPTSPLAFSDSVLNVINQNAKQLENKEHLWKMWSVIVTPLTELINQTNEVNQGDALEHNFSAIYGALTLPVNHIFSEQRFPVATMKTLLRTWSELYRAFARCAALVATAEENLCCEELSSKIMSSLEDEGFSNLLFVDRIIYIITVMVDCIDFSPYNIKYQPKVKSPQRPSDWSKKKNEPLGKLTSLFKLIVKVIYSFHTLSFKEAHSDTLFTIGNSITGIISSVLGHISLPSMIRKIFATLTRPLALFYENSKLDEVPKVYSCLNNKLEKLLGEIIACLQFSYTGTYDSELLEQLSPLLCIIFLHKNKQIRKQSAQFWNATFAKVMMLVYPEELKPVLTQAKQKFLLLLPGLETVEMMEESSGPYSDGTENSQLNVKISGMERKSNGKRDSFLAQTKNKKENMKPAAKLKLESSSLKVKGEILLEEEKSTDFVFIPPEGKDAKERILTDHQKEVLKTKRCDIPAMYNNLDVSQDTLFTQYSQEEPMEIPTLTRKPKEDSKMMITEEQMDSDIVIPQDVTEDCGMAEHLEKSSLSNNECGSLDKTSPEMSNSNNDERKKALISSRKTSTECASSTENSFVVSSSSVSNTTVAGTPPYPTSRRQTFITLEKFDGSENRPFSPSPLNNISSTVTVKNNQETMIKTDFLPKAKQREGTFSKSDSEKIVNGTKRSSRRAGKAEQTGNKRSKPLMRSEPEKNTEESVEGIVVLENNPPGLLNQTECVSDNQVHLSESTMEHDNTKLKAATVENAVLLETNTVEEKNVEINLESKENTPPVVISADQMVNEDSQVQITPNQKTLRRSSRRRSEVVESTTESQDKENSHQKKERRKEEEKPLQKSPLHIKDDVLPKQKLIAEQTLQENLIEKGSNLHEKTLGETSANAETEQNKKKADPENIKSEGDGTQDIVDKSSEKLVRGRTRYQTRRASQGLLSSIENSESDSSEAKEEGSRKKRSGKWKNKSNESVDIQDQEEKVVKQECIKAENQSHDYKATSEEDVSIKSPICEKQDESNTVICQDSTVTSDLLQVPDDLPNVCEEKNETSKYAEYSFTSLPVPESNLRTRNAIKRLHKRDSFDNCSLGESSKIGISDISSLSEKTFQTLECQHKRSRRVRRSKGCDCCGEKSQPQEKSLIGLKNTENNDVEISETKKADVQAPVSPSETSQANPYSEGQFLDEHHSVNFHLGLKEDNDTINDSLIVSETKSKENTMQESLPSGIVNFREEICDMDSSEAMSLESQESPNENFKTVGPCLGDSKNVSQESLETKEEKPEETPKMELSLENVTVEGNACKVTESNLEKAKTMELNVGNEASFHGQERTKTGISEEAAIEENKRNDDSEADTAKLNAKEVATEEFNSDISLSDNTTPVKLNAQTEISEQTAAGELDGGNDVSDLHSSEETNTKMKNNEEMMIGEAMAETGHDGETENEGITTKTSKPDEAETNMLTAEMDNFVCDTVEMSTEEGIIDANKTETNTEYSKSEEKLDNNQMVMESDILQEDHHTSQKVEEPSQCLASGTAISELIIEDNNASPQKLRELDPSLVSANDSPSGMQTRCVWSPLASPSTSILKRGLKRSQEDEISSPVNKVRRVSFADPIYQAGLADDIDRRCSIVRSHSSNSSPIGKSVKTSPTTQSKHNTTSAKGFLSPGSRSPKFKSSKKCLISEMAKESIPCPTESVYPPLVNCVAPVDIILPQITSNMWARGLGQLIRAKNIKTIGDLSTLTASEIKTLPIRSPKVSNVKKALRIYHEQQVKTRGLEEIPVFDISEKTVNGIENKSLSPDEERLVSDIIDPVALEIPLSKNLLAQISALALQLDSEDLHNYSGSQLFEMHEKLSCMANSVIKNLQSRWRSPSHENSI

Compound: Cc1cc(ccc1-c1ccccc1)C(=O)N1CCCN(CC1)C(=O)CCl [compound 10]
Experiment: probe-labelled cysteine peptide fold change vs DMSO (competition) (log2 fold change); higher = less target engagement (more negative = stronger competition)
Settings: THP-1, incubation time: 4 h
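Note: competitive profiling in live THP-1 cells: cysteine peptides tagged with an iodoacetamide desthiobiotin (IA-DTB) probe, intensity after compound treatment relative to DMSO-treated cells.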

Target | probe-labelled cysteine peptide fold change (10 µM) | probe-labelled cysteine peptide fold change (50 µM)
RGS14_O43566_183_ECLLAEAEGRPLREPGSSR (UniProt O43566) | -0.067 | 0.0115
RNF138_Q8WVD3_192_LLDHCNSNHLFQIVPVTCPICVSLPWGDPSQITR (UniProt Q8WVD3) | 0.121 | 0.0983
RNASEH1_O60930_191_AEIHAACK (UniProt O60930) | -0.0799 | -0.155
RIOK2_Q9BVS4_449_VQGGVPAGSDEYEDECPHLIALSSLNR (UniProt Q9BVS4) | -0.361 | -0.501
RLF_Q13129_808_DASYTCNFLGCK (UniProt Q13129) | -0.183 | -0.76
RLF_Q13129_227_SNCIPQATALSK (UniProt Q13129) | -0.0888 | -0.229
RNASEH2B_Q5TBB1_7_AAGVDCGDGVGAR (UniProt Q5TBB1) | -0.163 | 0.397
RNASET2_O00584_241_VCEDGPVFYPPPKK (UniProt O00584) | -0.361 | -0.258
RIF1_Q5UIP0_1692_DSFDNCSLGESSK (UniProt Q5UIP0) | -0.291 | -0.341
RLF_Q13129_663_LEDCHLQDRDLYPCPGTDCSR (UniProt Q13129) | -0.0144 | -0.571
RMI1_Q9H9A7_406_SIFSVHCNVPLAHDFTNK (UniProt Q9H9A7) | -0.0891 | -0.0242
RLF_Q13129_851_QDCINQPHLLNQTDK (UniProt Q13129) | -0.353 | -0.26
REL_Q04864_208_GGDEIFLLCDK (UniProt Q04864) | 0.136 | -0.0608
RLF_Q13129_1212_CDHEGPCSVDR (UniProt Q13129) | 0.0937 | 0.0143

A different layout for some results above:
Target	probe-labelled cysteine peptide fold change (10 µM)	probe-labelled cysteine peptide fold change (50 µM)
RNASEH1_O60930_191_AEIHAACK (UniProt O60930)	-0.0799	-0.155
RIOK2_Q9BVS4_449_VQGGVPAGSDEYEDECPHLIALSSLNR (UniProt Q9BVS4)	-0.361	-0.501
RLF_Q13129_808_DASYTCNFLGCK (UniProt Q13129)	-0.183	-0.76
